Results from one PubChem assay

The results are deposited in PubChem (AID1159506; NCATS, 2015).

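Luminescence from an EWS-FLI1 target-promoter (NR0B1) reporter, set against a CMV-promoter reporter, two days after silencing single genes in TC32 Ewing sarcoma cells. Each siRNA was applied at 20 nM. A z-score of the log NR0B1-over-CMV signal, less the median of siRNAs with the same seed; more negative means a stronger specific loss of the NR0B1 reporter.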

The strongest results of the screen are mostly left out here. Sequences are the guide (antisense) strand, without overhang.

siRNA | target gene | seed-corrected z-score
AAAAUAUCACAAGCUAGAC | LCE5A | 1.591
UCGAUUUCCAUGGUUGCUG | KAT6B | 0.4401
UAAGAGCGUAGGUGAAUCC | CHD1L | -0.2707
AAACUAACUUGAUGGGAUG | SLC25A13 | -0.2641
AUUCUUAUGAGACCUUUUU | TERF1P2 | 0.7419
UAAGUCUCCCUGUAGAUGA | SOAT2 | 0.1742
AAAGAUAUUCUGGUCCUUG | RBM28 | 1.06
UUAUGGUCAAGGUAUAGCC | LRRTM3 | 0.4788
AUAGGUCCUCGUAAAGGUG | TONSL | 0.1774
UCUUCAAAUUUGAAGGUGG | ATP5J | 0.1145
UUCUCUAUAAGGGUGUACC | RASSF8 | 0.2814
UAUCAGACCUCGGAGCUAC | SMARCA4 | -0.01653
UGUCAAACCACAGUAUUCC | NLRP14 | -0.7255
UUCGGCUCUAUCUUCAAUG | HEBP2 | 0.567
UCUGCUAGAACAGACACGC | ZCCHC24 | -0.4544
AAAGUGCCCAUAGAUGAGG | HMGCL | 0.2994
UCACUAGUGAUGAUCUUCC | ACSS1 | 0.1046
UUUGGUGGUAGCCCGAUGC | PI4K2A | 0.3112
UUCGGUUCCGUGUGAUUCC | TBC1D2 | 0.2667
AACAUAUUCGGGAUUGUCC | CRLS1 | 0.744
AGAUUGCUCAGGAUUUCCC | CSPG4P5 | 0.06791
UAUCGAACAACCUGCAGCG | P4HTM | -0.05578
GGAAAACUCACUUCCGCCC | BOLA2 | 0.2421
UUUUCAUCCAUGGGUAGAC | HOXC4 | -1.078
UUUAGUUCCAGGCCGAUUU | TRUB2 | 0.3863
AAGGUCAUCUUCGUAGUUG | PERP | 0.4482
UCCGAUUCCGAUUAUACCG | NIFK | 1.025
UCCUUCAUCCUUGGACUGG | LOC643373 | 1.081
UCCCAAUCAAAUUAACUCC | VCAM1 | 0.01416
UCCUGGGCAAAGACGUAGC | SBK1 | -1.569
ACAUUUGUCGUGAUGUGCU | FAM45BP | 0.09833
AAAGAUUGAAGUCCUCACU | KRT18P55 | -0.04113
UAAUUCUAUGAUAUUGAGC | LOC729987 | 2.068
UUUGUUGGAGGAAUGCUAC | PIK3C2G | -0.2545
UAGGUGUAAAAGCAGUCUG | LINC-PINT | -1.237
UCUGUUGAGACUCCAACUC | CEP164 | -0.1238
UAAAUUCCCAGAAGCAUCC | MAT2B | -0.1912
UAUACUUCAAUGAAGUUGA | SHISA9 | 0.606
UACUUUUCUGCUGAAGGUC | FUNDC2 | 1.045
UUGGUGACAAAGGAUAGCC | RBM46 | -1.939
AAUGGGACCAAUUUUUCCA | COLEC11 | -0.6875
UUGCGUUUGGGCAAGGUAC | AXIN2 | 1.022
UUUUCAGUCUCAGGGCUGC | C19orf45 | -0.4273
UGGGUACUGAGGAAAUGGG | ABI3 | -0.2969
UUAGGGAAGUGUCCAGUUU | TMEM223 | -0.2622
UGACCUGUCACAUCCAUCU | RNF40 | 0.7099
UCAAAGUACAAGGAUAAUC | OAZ1 | -0.1761
UCUUGAUCUUUUCUGACUC | TMEM63B | -0.3543
UUAUUCUCGUCGAUGAUGU | LHX1 | -0.4172
UGUAUUCACAGUUACAGCU | LINC01567 | -0.8314
AUCUCGUUUAACUUGAGUC | MFSD1 | 0.1511
UUGGAGUUUCAUGAUCUUC | CHCHD4 | -0.2353
AUCAGGGUAGUAGUAGUCG | CCR8 | 0.1808